Data from patent publication US20240115875A1, “Systems, Methods, and Substances for Controlled Endoluminal Energy Application” (Dream Big Biotechnologies B.V., priority 2021, published 2024).
For at least one compound, name, drawing or mass did not settle the structure.

Experiments:
[1] = system: tumor tissue; conditions: at the wavelength given with each photosensitizer (630-690 nm); input of the simulation; cited from earlier work
[2] = system: tumor tissue; assay: Estimated PDT threshold doses for several photosensitizers (photodynamic threshold model); conditions: in tumor, from uptake and molar weight
Method: In these simulations, we assumed intravenous administration of a light-absorbing drug and the placement of a light emitter in the endovascular system at the site of tumor encroachment around it. Light absorbed by the photosensitizer was assumed to result in the local creation of short-lived cytotoxic radicals, causing cell death e.g. hemorrhagic tissue necrosis and apoptosis. To quantify the attainable effects, light-dose escalation studies were performed using Monte Carlo light propagation simulations (FullMonteCUDA) (“High-performance, robustly verified Monte Carlo simulation with FullMonte,” J. Biomed. Opt. 23(8), 085001 (2018)). The use of the photosensitizer BPD-MA mediated PDT was initially investigated in a simple “cube and tube” geometry representing the pancreas and a vessel traversing its center. The multilayered tube represented the vascular wall layers, intima, media and adventitia having an air-filled balloon with a linear line source in the center. […]

Compound: Oc1cccc(-c2c3nc(c(-c4cccc(O)c4)c4ccc([nH]4)c(-c4cccc(O)c4)c4nc(c(-c5cccc(O)c5)c5ccc2[nH]5)CC4)C=C3)c1 [Temoporfin, 5,10,15,20-Tetra(m-hydroxyphenyl)chlorin]
- Molar extinction coefficient ϵ [1]: 30,000 M^−1 cm^−1
- Photosensitizer concentration [2]: 7.9 · 10^−7 M
